Source: PubChem BioAssay AID2685 (National Center for Advancing Translational Sciences (NCATS), 2010)
The other results are listed elsewhere or left out. Shown are side measurements of this screen, not its main read-out; they come without a call. Most of these compounds were active or inconclusive in the main read-out, so they are no random draw. The note in brackets gives the kind of curve behind each potency; many fits are weak.

Assay: qHTS Assay for Lipid Storage Modulators in Drosophila S3 Cells;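 as to cell number change: cells counted by Cell Tracker Red CMTPX staining in the red channel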
Details: BODIPY lipid droplet fluorescence, 18-24 h; for cell number change: measured here: cell count max response, cells fed with added oleic acid
Procedure, shortened: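 Drosophila S3 cells loaded with oleic acid (400 uM, as added) and compounds at several concentrations; lipid droplets imaged by 488-nm laser-scanning cytometry, 500–530 nm intensity and object ratio to cell channel. Percent activity normalized to 20 uM Triacsin C.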

[1] = measured here: cell number channel AC50, cells fed with added oleic acid
[2] = measured here: lipid fluorescence (Fed channel) AC50, cells fed with added oleic acid

Question: Which cell number change does the source give for Cc1onc(-c2c(Cl)cccc2Cl)c1NC(=O)NN(C)c1ccc([N+](=O)[O-])cn1 here?
Answer: 20%

Question: What about the AC50 [1] of the same molecule?
Answer: 3.26 µM [rising, single point]

Question: What about the AC50 [2] of the same molecule?
Answer: 9.2 µM [rising, single point]

Question: With Cc1nc(SC(C)C(=O)NCC2CCCO2)c2cc(-c3ccccc3)sc2n1 (stereo not drawn) as the molecule, how does the cell number change read?
Answer: -15.3%

Question: What about the AC50 [2] of the same molecule?
Answer: 7.31 µM [falling, partial curve]

Question: With Cc1cccc(-c2cc(C(=O)Nc3cccnc3)c3ccccc3n2)c1 as the molecule, how does the cell number change read?
Answer: 9.09%

Question: And the AC50 [2]?
Answer: 20.6 µM [falling, partial curve]

Question: Which AC50 [2] does the source give for COC(=O)Nc1c(C(=O)OC)cc(OC)c(OC)c1OC here?
Answer: 5.17 µM [falling, full curve, poor fit]

Question: With COc1cnc(-c2ccccn2)nc1NC(C)C as the molecule, how does the cell number change read?
Answer: -2.31%

Question: And the AC50 [1]?
Answer: 0.82 µM [falling, single point]

Question: And the AC50 [2]?
Answer: 2.31 µM [falling, single point]

Question: For O=c1/c(=C\c2ccc(F)cc2)sc2n1CCCN=2, which cell number change is on record?
Answer: -10.5%

Question: And the AC50 [1]?
Answer: 0.00517 µM [rising, full curve, poor fit]

Question: What about the AC50 [2] of the same molecule?
Answer: 0.731 µM [rising, partial curve, poor fit]

Question: With COc1ccccc1NC(=O)c1ccc(NC(=O)COC(=O)C2CCCO2)cc1 (stereo not drawn) as the molecule, how does the AC50 [2] read?
Answer: 2.31 µM [rising, partial curve]

Question: For CCC1=Nc2cc(C(=O)NCCN3CCCC3)ccc2Sc2ccc(C)cc21, which cell number change is on record?
Answer: -1.81%

Question: What about the AC50 [2] of the same molecule?
Answer: 2.31 µM [falling, single point]

Question: With Cc1cc(C=C2C(=O)c3ccccc3C2=O)c(C)n1-c1ccc(Cl)cc1 as the molecule, how does the cell number change read?
Answer: -68.6%

Question: And the AC50 [1]?
Answer: 29.1 µM [falling, single point]

Question: Which cell number change does the source give for Cc1cccc(NC(=S)NCCN2CCOCC2)c1 here?
Answer: -6.5%

Question: And the AC50 [2]?
Answer: 0.517 µM [falling, single point]

Question: What does the source list for CCOC(=O)c1ccc(-n2c(N)c(C(=O)NCC3CCCO3)sc2=S)cc1 (stereo not drawn)?
Answer: cell number change: -2.48%; AC50 [2]: 29.1 µM [rising, single point]

Question: Which cell number change does the source give for Cc1cc(C(=O)CSc2nnc(-c3ccncc3)n2-c2ccccc2)c(C)n1C here?
Answer: -1.43%

Question: Which results are given for O=C(C/C(=N\NC(=O)c1ccccc1Br)C(F)(F)F)c1cccs1?
Answer: cell number change: -24.4%; AC50 [2]: 0.651 µM [rising, single point]

Question: Which results are given for CCN1CCCC1CN(Cc1cc2ccc(C)cc2[nH]c1=O)C(=S)Nc1ccccc1OC (stereo not drawn)?
Answer: cell number change: 10.5%; AC50 [1]: 7.31 µM [falling, partial curve, poor fit]

Question: What does the source list for Cc1nnc(SCc2c(Cl)cccc2Cl)n(N)c1=O?
Answer: cell number change: 39.6%; AC50 [1]: 20.6 µM [rising, single point]

Question: Which cell number change does the source give for CC(C)(C)C1CCC(=NNC(=O)CN(c2ccccc2)S(C)(=O)=O)CC1 (stereo not drawn) here?
Answer: -23%

Question: And the AC50 [2]?
Answer: 29.1 µM [falling, partial curve, poor fit]

Question: What does the source list for CN(C)Cc1cc(O)c(CN(C)C)cc1O?
Answer: cell number change: -60.1%; AC50 [1]: 5.17 µM [falling, partial curve]; AC50 [2]: 4.61 µM [falling, full curve]

Question: Which AC50 [2] does the source give for O=C1CCCC(=O)C1CS(=O)(=O)c1ccccc1 here?
Answer: 0.517 µM [falling, single point]

Question: Which cell number change does the source give for CCOc1ccccc1Oc1c(C)oc2c(CN3CCN(C)CC3)c(O)ccc2c1=O here?
Answer: -2.73%

Question: And the AC50 [2]?
Answer: 2.06 µM [rising, single point]

Question: With Cn1c(=O)c([N+](=O)[O-])c(NCc2ccccc2)c2ccccc21 as the molecule, how does the AC50 [1] read?
Answer: 2.31 µM [falling, partial curve]

Question: What about the AC50 [2] of the same molecule?
Answer: 4.61 µM [falling, partial curve]

Question: Which cell number change does the source give for CCCC(=O)NC(=S)Nc1cccc(C(C)=O)c1 here?
Answer: 5.59%

Question: Which AC50 [2] does the source give for CCOc1ccc(CCNC(=O)Cn2cccc2C(=O)c2ccccc2)cc1OCC here?
Answer: 13 µM [falling, partial curve]

Question: What does the source list for Cc1csc(/C(C#N)=N/O)n1?
Answer: cell number change: -0.917%; AC50 [2]: 0.461 µM [rising, partial curve, poor fit]

Question: Which cell number change does the source give for CCOc1ccc(-c2nc(-c3ccncc3)no2)cc1OCC here?
Answer: 22%

Question: Which results are given for CC(C)c1ccc(NC(=O)C2C3C=CC4(CN(CCCN5CCOCC5)C(=O)C24)O3)cc1 (stereo not drawn)?
Answer: cell number change: 10%; AC50 [2]: 8.2 µM [falling, partial curve, poor fit]

Question: Which results are given for CNS(=O)(=O)c1ccc(NC(=O)c2nc3nc(C)cc(C(F)F)n3n2)cc1?
Answer: cell number change: 13.7%; AC50 [2]: 1.3 µM [falling, full curve]

Question: For CCC1CCCCN1C(=S)NC(=O)c1cccs1 (stereo not drawn), which AC50 [2] is on record?
Answer: 0.58 µM [falling, partial curve]

Question: What does the source list for Cc1ccc(CN2CCC(C(=O)Nc3ccc(Oc4cccnc4)cc3)CC2)cc1?
Answer: cell number change: -28.7%; AC50 [2]: 29.1 µM [falling, partial curve, poor fit]

Question: With COc1ccccc1NS(=O)(=O)NC(=O)c1cn(C)c2ccccc12 as the molecule, how does the cell number change read?
Answer: -10.8%

Question: For Cc1nc(SCC(=O)Nc2cccc(Cl)c2)n[nH]1, which cell number change is on record?
Answer: 0.934%

Question: For Cc1cc(C)c(-c2csc(NC(=O)C3=COCCO3)n2)cc1C, which cell number change is on record?
Answer: 196%

Question: And the AC50 [1]?
Answer: 16.4 µM [rising, single point]

Question: For COC(=O)Nc1nnc(-c2ccco2)s1, which cell number change is on record?
Answer: -23.5%

Question: What about the AC50 [2] of the same molecule?
Answer: 32.6 µM [falling, single point]

Question: With CN(C(=O)c1ccc(S(=O)(=O)N2CCCC2)cc1)C1CCS(=O)(=O)C1 (stereo not drawn) as the molecule, how does the cell number change read?
Answer: -23%

Question: What about the AC50 [2] of the same molecule?
Answer: 0.0291 µM [falling, full curve, poor fit]

Question: Which results are given for COc1ccc(CC(=O)Nc2ccccc2C(=O)N2CCCC2)cc1?
Answer: cell number change: -11.6%; AC50 [2]: 1.84 µM [rising, partial curve]

Question: Which cell number change does the source give for O=C(Oc1ccccc1Cl)c1ccccc1P(=O)(O)O here?
Answer: -11.9%

Question: And the AC50 [2]?
Answer: 0.116 µM [rising, full curve, poor fit]

Question: Which cell number change does the source give for Cc1cccc(-n2ncc3c2CCCC3NC(=O)c2ccc[n+]([O-])c2)c1C (stereo not drawn) here?
Answer: -20.8%

Question: Which results are given for COC(=O)CCC(=O)N1CCCC(N2CCN(c3ccc(OC)cc3)CC2)C1 (stereo not drawn)?
Answer: cell number change: -11.8%; AC50 [1]: 0.00651 µM [falling, full curve, poor fit]

Question: Which cell number change does the source give for Cc1c(OCC(=O)NCCCn2ccnc2)ccc2c3c(c(=O)oc12)CCC3 here?
Answer: -31.6%

Question: And the AC50 [1]?
Answer: 29.1 µM [falling, single point]

Question: Which results are given for COc1ccccc1Cn1c(-c2ccccc2OC)nc2ccccc21?
Answer: cell number change: -59.9%; AC50 [1]: 13 µM [falling, single point]; AC50 [2]: 29.1 µM [falling, single point]

Question: For O=C1C(=Cc2ccco2)C(=O)c2ccccc21, which cell number change is on record?
Answer: 9.61%

Question: What about the AC50 [1] of the same molecule?
Answer: 6.51 µM [falling, single point]

Question: And the AC50 [2]?
Answer: 7.31 µM [falling, single point]

Question: What does the source list for O=C1OCCC1Sc1nc2ccccc2n1-c1ccccc1 (stereo not drawn)?
Answer: cell number change: 30.3%; AC50 [1]: 9.2 µM [rising, partial curve]; AC50 [2]: 20.6 µM [rising, partial curve]

Question: For Fc1ccccc1Nc1n[nH]c(=S)s1, which cell number change is on record?
Answer: -13%

Question: For COc1ccc(OC)c(NC(=O)Cc2nn(C)c(=O)c3ccccc23)c1, which cell number change is on record?
Answer: -20.3%

Question: And the AC50 [2]?
Answer: 29.1 µM [falling, single point]

Question: Which cell number change does the source give for CCOc1ccccc1NC(=O)CN1CCN(C(=O)C2CCCO2)CC1 (stereo not drawn) here?
Answer: -13.2%

Question: And the AC50 [2]?
Answer: 0.82 µM [falling, full curve, poor fit]

Question: With O=C(CSc1nnc(-c2ccc(Cl)cc2)n1Cc1ccco1)c1cccs1 as the molecule, how does the cell number change read?
Answer: 51.7%

Question: And the AC50 [1]?
Answer: 23.1 µM [rising, single point]

Question: What about the AC50 [2] of the same molecule?
Answer: 29.1 µM [rising, single point]

Question: With Cc1cccc(N2CCN(CC(=O)NCC3CCCCC3)CC2)c1C as the molecule, how does the cell number change read?
Answer: -56.8%

Question: And the AC50 [1]?
Answer: 20.6 µM [falling, single point]

Question: And the AC50 [2]?
Answer: 23.1 µM [falling, single point]

Question: Which results are given for Cc1ccc(S(=O)(=O)Cc2csc(N)n2)cc1?
Answer: cell number change: -4.75%; AC50 [2]: 20.6 µM [falling, single point]

Question: With COCCNC(=S)N/N=C(\C)c1ccccc1F as the molecule, how does the cell number change read?
Answer: 34%

Question: What about the AC50 [1] of the same molecule?
Answer: 0.0231 µM [rising, full curve]

Question: What does the source list for O=C(c1ccccc1-c1ccccc1)N1CCOCC1?
Answer: cell number change: -36.2%; AC50 [1]: 10.3 µM [falling, partial curve, poor fit]; AC50 [2]: 3.26 µM [falling, partial curve, poor fit]

Question: For Oc1c(N=NC(=S)Nc2ccccc2F)c2ccccc2n1Cc1cccc(Cl)c1, which cell number change is on record?
Answer: -31.4%

Question: What about the AC50 [1] of the same molecule?
Answer: 16.4 µM [falling, single point]

Question: And the AC50 [2]?
Answer: 16.4 µM [falling, single point]

Question: For COC(=O)C(N)Cc1ccc(OC)c([N+](=O)[O-])c1 (stereo not drawn), which cell number change is on record?
Answer: 11.4%

Question: What about the AC50 [2] of the same molecule?
Answer: 0.259 µM [rising, single point]

Question: With CC1CC(C)CN(C(=O)CSc2nnc(-c3ccc(Cl)cc3)o2)C1 (stereo not drawn) as the molecule, how does the cell number change read?
Answer: -2.62%

Question: For CC(=O)N(c1nc(/C=C\C(=O)O)cs1)c1ccccc1F, which cell number change is on record?
Answer: -5.9%

Question: What about the AC50 [2] of the same molecule?
Answer: 0.0517 µM [falling, full curve, poor fit]

Question: For COC(=O)c1c(NC(=O)CN2CCC(C)CC2)c2c(C)cccc2n1C, which cell number change is on record?
Answer: -14.4%

Question: And the AC50 [1]?
Answer: 0.146 µM [rising, full curve, poor fit]

Question: And the AC50 [2]?
Answer: 6.51 µM [rising, single point]

Question: Which results are given for COC(=O)c1cc2ccsc2n1CC(=O)Nc1cc(Cl)ccc1OC?
Answer: cell number change: -73.7%; AC50 [1]: 29.1 µM [falling, single point]

Question: What does the source list for COc1cc(C)c(CN2CCN(CC(=O)Nc3ccccc3C(=O)NC3CC3)CC2)cc1OC?
Answer: cell number change: 2.59%; AC50 [2]: 14.6 µM [rising, partial curve, poor fit]

Question: For Cc1cccc(C)c1OCC(=O)Nc1ncn[nH]1, which cell number change is on record?
Answer: 13.1%

Question: What about the AC50 [2] of the same molecule?
Answer: 25.9 µM [rising, single point]

Question: With CC(=O)N1CCSc2ccc(S(=O)(=O)Nc3ccc(C)cc3)cc21 as the molecule, how does the AC50 [2] read?
Answer: 20.6 µM [falling, partial curve]

Question: Which cell number change does the source give for Cc1ccc2c(c1)C(=C(C#N)C#N)C(=O)N2CCN1CCCCC1 here?
Answer: 2.65%

Question: With CCOC(=O)c1c(C)[nH]c(C)c1C(=O)COC(=O)[C@@H]1CCCN1S(=O)(=O)c1ccc(Cl)cc1 as the molecule, how does the cell number change read?
Answer: -14.1%

Question: With O=C(N/N=C/c1ccc(OCCCF)cc1)c1cc(OCC(F)(F)F)ccc1OCC(F)(F)F as the molecule, how does the cell number change read?
Answer: -20.3%

Question: And the AC50 [2]?
Answer: 11.6 µM [falling, partial curve]
